Our source for the binding values is patent US20050137135A1 (priority 2002, published 2005).

The target in this test is T1, rat pancreatic islet (wild type) GIP-receptor stably expressed on CHO-K1 cells (rat) (UniProt P43219).
T1 sequence (looked up): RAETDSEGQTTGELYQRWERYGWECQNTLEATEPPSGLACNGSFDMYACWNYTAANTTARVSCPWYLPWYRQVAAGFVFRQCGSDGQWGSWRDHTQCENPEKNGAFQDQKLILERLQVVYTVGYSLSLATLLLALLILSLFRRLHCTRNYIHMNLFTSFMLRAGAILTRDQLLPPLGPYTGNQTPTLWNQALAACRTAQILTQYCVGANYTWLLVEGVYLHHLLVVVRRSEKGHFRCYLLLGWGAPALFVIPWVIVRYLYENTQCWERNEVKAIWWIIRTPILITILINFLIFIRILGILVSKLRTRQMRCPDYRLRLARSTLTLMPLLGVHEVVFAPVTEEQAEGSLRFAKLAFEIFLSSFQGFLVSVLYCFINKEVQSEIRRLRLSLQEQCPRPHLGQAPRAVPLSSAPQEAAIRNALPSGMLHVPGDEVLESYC
Kind of test: displacement of 125I-GIP from intact wtGIPR cells (FIG. 9).

No constants are given. Whether binding was seen depends on the method and setting.

B1: GIP1-14 peptide with alanine at position 5 (alanine scan, formula 4d) (peptide)
peptide: YAEGAFISDYSIAM
On to B1, for which the binding entry was “no binding (tested: 50 micromolar)”.

B2: GIP1-14 peptide with alanine at position 3 (alanine scan, formula 4b) (peptide)
peptide: YAAGTFISDYSIAM
As for B2, the binding entry is “no binding (tested: 50 micromolar)”.
